{
  "sequences": {"note": "Sequences of proteins named here, by UniProt entry; tags and fusion partners are left off.", "UniProt P10635, whole entry": "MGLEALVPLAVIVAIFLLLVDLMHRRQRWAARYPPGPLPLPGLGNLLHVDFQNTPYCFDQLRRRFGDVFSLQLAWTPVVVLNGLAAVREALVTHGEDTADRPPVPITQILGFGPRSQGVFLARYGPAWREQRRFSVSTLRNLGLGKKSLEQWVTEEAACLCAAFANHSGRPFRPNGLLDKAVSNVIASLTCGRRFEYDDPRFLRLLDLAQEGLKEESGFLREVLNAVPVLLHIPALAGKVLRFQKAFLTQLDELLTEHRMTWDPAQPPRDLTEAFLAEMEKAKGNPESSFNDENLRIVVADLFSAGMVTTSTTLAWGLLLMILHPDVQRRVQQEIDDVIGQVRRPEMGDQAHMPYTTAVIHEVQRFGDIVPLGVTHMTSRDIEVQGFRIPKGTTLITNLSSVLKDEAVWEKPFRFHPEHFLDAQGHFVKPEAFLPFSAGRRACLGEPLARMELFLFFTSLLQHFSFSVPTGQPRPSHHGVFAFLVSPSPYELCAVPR"},
  "source": "ChEMBL document CHEMBL2176989",
  "about": "“Design, synthesis, and pharmacological evaluation of piperidin-4-yl amino aryl sulfonamides: novel, potent, selective, orally active, and brain penetrant 5-HT₆ receptor antagonists” (J Med Chem, 2012)",
  "molecular_target": "Cytochrome P450 2D6 (Homo sapiens, UniProt P10635)",
  "experiment": "Inhibition of CYP2D6 in human liver microsomes using dextromethorphan as substrate after 10 mins by LC-MS/MS analysis in presence of NADPH",
  "data": [
    {"smiles": "COc1ccc(S(=O)(=O)N2CCOc3ccc(Cl)cc32)cc1NC1CCN(C)CC1", "values": [
      {"measurement": "IC50", "value": 27, "unit": "µM"}
    ]}
  ]
}
